Data from PubChem BioAssay AID1508600 (Functional Genomics Laboratory (NCATS/FGL), 2020).
The whole screen tested about 53,000 sequences, of which about 3,700 (7%) were called active.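 Rule for the calls: active = gene knockdowns whose robust z-score for IL-1 alpha signal is at least 2 or at most -2, so actives lie on both sides; inactive = the rest.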 The list shows a part of the results.

assay: Components of the Cytosolic LPS Sensing Pathway: Gene Identification via Genome-wide siRNA Screen; settings: RAW264.7 macrophages, IL-1a HTRF, actives lie on both sides, screened at 100 nM (by protocol), cells primed 5 h with Pam3CSK4 first;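 note: robust z of the log signal after scaling to non-targeting control siRNA wells of the plate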
Method in brief: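 Cells (RAW264.7, 1×10^4 per well) were transfected with siRNA at 100 nM and cultured 48h at 37 degrees C. Pam3CSK4 was added for 5 hours; LipidA transfection followed for 24 hour. IL-1a was then measured by HTRF.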

z-score, inactive:
AUUCGGGAAAAUUUUAGACTT against Rbfox3 -0.171
GCUGUGGAGAAGUGCUACUTT against Lce1b -0.907
GCCAGGUGGAACCAAGUAUTT against Zcchc17 -1.67
GCGUUGAUUGUCCUCCUGATT against Cbarp 0.127
GCAGUCAUCAAGGAUCAUUTT against Cyb5r4 0.118
GAAGAUCUUUCCCAUGGGUTT against Psmb3 -0.972
GGUCUAGCUGCAUUGUUUGTT against Lgals8 0.0629
CCUUCGACUAUUCUUACUGTT against Kif1c -0.11
GGUGGAAUUUUUGUUUGAUTT against Skint2 0.442
CCGAGAGGAUCGUAUAUCATT against Plcg1 -0.682
GACAUACACCUCACCUUGUTT against Hoxa6 -0.928
GGAUCGAGCCAAGAGCUGUTT against Rnd2 -0.105
CCAAUUUGUCAAAACAAUCTT against Slit2 0.681
CGAACUCGAAUGCUAACGCTT against Nomo1 -1.52
GGACCAUAGAUAUUCUAGATT against Zfp709 -0.756
GCUCUUUAUAGGGUUCGGATT against Mgat5b -0.036
GCUGACUCUUAGAUAAAUATT against Seh1l -0.81
GGCUGCAUGUGCUCUGUUATT against Slfn9 0.695
GGAAUCCUGGUGCUGAUUATT against Urm1 1.6
GGAUCAGCUGUUGCCAGAGTT against Zfp384 0.806
GUCCAGUAACAUGCAUGAGTT against Defb6 -0.419
GCCUGUUCGGUGUUCAACUTT against Etv3 0.808
GGUCAAUCAGUUAUAAGCUTT against Psrc1 -0.592
GCACAGUGGUGUUAAAUAGTT against 2510009E07Rik -0.79
GGAGAUCAGGCUGUUCACATT against Mei1 -0.172
GCUUAAGGUUAUUUGCUUGTT against Cct7 0.301
GGAACAUCCAGUCUCUCACTT against Fbxo31 0.244
GGACAAGGUGGAUAAAAGUTT against Cttn 0.789
GGCAGACCCUGUGAAUAUATT against Ccn1 -1.99

A stretch taken from the entries so far:
z-score, inactive:
GGAUCGAGCCAAGAGCUGUTT against Rnd2 -0.105
CCAAUUUGUCAAAACAAUCTT against Slit2 0.681
